These are literature values, as cited in patent US6423697B1, “Intraoral topical anti-inflammatory treatment for relief of migraine, tension-type headache, post-traumatic headache, facial pain, and cervical-muscle spasm” (priority 1999, dated 2002).

The conditions of this series: oral administration.

In the case of `COc1ccc2cc([C@H](C)C(=O)O)ccc2c1` [Naproxen, 6-methoxy methyl-2-naphtalene acetic acid], the “time to peak plasma levels” value is 24 h.
